Results are given in words; binding and its absence hold for the method and conditions named. In cells and extracts the contact can be indirect. Some binding calls cover weakened binding; strength is not graded here.

The chains behind the UniProt entries cited, without tags or fusion partners.
UniProt O15371: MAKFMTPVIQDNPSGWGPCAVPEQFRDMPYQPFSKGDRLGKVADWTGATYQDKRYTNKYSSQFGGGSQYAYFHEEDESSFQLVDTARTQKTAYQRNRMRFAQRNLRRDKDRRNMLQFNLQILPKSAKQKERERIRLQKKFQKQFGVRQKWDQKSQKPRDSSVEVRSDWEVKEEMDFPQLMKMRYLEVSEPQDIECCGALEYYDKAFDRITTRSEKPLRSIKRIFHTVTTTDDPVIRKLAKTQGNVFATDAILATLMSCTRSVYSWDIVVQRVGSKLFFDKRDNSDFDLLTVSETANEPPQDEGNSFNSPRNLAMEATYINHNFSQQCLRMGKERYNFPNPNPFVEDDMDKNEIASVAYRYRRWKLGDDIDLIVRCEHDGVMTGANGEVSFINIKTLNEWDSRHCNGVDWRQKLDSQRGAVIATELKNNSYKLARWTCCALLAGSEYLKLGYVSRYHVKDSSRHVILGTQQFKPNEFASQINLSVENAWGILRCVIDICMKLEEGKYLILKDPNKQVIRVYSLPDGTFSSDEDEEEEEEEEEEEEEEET
UniProt P25098: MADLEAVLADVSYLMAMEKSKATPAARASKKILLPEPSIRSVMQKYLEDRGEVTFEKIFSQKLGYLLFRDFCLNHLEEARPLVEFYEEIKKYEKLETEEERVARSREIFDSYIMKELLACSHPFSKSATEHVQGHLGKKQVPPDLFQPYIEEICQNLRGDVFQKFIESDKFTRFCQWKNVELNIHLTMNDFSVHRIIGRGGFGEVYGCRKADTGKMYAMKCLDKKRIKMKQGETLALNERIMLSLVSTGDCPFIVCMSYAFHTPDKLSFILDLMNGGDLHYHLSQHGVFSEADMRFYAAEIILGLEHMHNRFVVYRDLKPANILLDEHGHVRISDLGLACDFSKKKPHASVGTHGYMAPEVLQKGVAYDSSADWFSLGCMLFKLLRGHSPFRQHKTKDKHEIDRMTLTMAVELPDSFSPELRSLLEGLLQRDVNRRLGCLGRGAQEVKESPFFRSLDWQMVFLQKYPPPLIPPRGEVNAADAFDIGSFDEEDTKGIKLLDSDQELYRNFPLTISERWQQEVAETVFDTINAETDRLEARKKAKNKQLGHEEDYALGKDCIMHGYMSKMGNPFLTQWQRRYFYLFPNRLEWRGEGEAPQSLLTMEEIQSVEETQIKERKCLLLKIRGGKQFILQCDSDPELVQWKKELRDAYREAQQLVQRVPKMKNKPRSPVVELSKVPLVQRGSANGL

Test [1] has as its target eIF3d (expression vector, transfected) (human) (UniProt O15371). As to the kind of experiment: co-IP; lysates of GBC-SD cells transiently transfected with eIF3d or eIF3d deletion mutants, immunoprecipitated and immunoblotted.
In test [2] the target is eIF3d (human (endogenous in NOZ)) (UniProt O15371). As to the kind of experiment: co-IP; endogenous proteins of NOZ cell lysate; rabbit anti-eIF3d or mouse anti-GRK2 antibody overnight at 4 °C, protein G-Sepharose; lysis buffer 50 mmol/l Tris-HCl pH 8.0, 150 mmol/l NaCl, 1% NP-40; IgG control.
Test [3] has as its target GRK2 (human (endogenous in NOZ)) (UniProt P25098). The description is as above.

Regarding “GRK2 (from UniProt P25098 1-689) (enzyme)”, the binding entry in test [1] and in test [2] was “binds” in each case.

In the case of eIF3d (from UniProt O15371 1-548), the binding entry in test [3] is “binds”.

These data come from publication PMC5520919.
